Substitutions are numbered along the chain they refer to. These are yes or no findings as the source states them, for the method shown. For some assays here: In cells and extracts the contact can be indirect. Some entries that bind do so weakly or less than the wild type. Where a sequence is shown, tags or fusion partners need not be part of it.
How the values were obtained:
[1] = target: T1, IAA8-NLuc (Arabidopsis thaliana) (UniProt Q38826); assay: split reporter; luciferase complementation imaging (LCI) in N. benthamiana leaves co-infiltrated with NLuc and CLuc fusions, imaged 3 d after infiltration, 100 μM D-luciferin
T1 sequence: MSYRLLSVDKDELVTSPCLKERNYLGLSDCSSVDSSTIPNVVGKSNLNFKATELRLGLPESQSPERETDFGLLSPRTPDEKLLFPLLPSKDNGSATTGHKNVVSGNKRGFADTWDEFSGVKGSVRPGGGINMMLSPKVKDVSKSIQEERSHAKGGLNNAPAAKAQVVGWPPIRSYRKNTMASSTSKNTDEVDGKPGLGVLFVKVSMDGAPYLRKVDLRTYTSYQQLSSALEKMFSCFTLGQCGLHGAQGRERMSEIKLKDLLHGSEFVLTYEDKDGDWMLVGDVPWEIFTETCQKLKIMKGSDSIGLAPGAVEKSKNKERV

Protein sequences, listed by entry. Tags and fused reporters are not part of them.
UniProt Q39026: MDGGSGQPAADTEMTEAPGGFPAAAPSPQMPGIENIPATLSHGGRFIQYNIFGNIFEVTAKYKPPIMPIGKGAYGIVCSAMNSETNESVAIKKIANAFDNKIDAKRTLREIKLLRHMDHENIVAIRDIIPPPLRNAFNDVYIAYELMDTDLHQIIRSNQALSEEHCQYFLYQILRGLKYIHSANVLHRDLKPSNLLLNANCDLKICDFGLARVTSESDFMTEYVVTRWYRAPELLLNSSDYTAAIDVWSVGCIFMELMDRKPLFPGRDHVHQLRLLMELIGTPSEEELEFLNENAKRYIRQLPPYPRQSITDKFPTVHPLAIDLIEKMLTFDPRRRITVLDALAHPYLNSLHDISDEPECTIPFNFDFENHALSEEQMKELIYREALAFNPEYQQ

SGT1a-NLuc = target: T2, SGT1a-NLuc (UniProt Q9SUR9); assay: as above
T2 sequence: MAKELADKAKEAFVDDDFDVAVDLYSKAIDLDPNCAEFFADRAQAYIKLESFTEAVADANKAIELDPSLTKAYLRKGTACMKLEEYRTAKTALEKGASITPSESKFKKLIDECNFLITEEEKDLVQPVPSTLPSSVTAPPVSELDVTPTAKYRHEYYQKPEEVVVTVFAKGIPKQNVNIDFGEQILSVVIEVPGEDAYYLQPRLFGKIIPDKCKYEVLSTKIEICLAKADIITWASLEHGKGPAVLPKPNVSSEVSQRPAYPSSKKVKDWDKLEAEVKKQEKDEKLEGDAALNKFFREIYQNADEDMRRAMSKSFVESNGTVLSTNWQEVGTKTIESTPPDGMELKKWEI

[2] = target: T3, CLuc-TIR1 (Arabidopsis thaliana) (UniProt Q570C0); assay: split reporter; luciferase complementation imaging (LCI) in N. benthamiana leaves, IAA8 variants-NLuc with CLuc-TIR1, with or without auxin
T3 sequence: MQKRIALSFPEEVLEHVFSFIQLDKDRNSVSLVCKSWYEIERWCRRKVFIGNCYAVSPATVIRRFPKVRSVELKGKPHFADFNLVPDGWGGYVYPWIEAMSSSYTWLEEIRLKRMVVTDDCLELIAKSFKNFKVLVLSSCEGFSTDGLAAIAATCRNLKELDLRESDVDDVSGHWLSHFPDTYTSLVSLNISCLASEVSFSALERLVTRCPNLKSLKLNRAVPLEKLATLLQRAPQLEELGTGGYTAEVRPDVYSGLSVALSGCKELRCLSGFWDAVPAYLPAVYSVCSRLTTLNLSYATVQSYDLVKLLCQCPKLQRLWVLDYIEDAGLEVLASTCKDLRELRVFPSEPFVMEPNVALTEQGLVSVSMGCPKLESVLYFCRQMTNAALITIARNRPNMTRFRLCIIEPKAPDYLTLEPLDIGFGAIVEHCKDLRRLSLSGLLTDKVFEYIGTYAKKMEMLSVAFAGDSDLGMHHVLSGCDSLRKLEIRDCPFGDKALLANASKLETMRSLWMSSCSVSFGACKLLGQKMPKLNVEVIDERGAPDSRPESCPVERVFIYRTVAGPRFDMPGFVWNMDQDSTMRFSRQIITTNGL

[3] = target: BD-MPK6 (Arabidopsis thaliana) (UniProt Q39026); assay: two-hybrid; IAA8 in pGAD424 (AD), MPKs in pAS2-1 (BD), yeast strain pJ69-4A; growth on SD -Leu/-Trp/-His and X-gal assay for β-galactosidase
[4] = target: T4, BD-MPK3 (Arabidopsis thaliana) (UniProt Q39023); assay: as above
T4 sequence: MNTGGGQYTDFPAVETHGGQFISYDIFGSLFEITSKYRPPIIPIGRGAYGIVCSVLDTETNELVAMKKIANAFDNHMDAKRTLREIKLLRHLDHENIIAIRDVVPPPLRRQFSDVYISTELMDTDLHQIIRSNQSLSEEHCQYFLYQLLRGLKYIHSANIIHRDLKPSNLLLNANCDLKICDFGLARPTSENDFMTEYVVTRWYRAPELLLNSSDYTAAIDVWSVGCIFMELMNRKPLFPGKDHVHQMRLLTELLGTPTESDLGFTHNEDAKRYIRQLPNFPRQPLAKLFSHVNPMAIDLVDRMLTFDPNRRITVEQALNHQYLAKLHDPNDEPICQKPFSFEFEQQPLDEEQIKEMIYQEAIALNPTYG

“CLuc-MPK6 (from UniProt Q39026 1-395) (enzyme)” was tested. Which binding [1] did it give?
The binding was “binds”.

B1: CLuc-MPK3 (enzyme, UniProt Q39023 1-370)
chain: T4 sequence
With B1 as the molecule, how does the binding [1] read?
Its binding is “binds”.

B2: CLuc-RAR1 (protein, UniProt Q9SE33 1-226)
chain: MEVGSATKKLQCQRIGCNAMFTDDDNPQGSCQFHASGPFFHDGMKEWSCCKQRSHDFSLFLEIPGCKTGKHTTEKPVLAKSVPKHPVAAPTSSPDANAATKDSCSRCRQGFFCSDHGSQPKEQIKQTLNTPGQAEEEKIEPLAPPVQKAVIDINQPQVCKNKGCGQTFKERDNHETACSHHPGPAVFHDRLRGWKCCDVHVKEFDEFMEIPPCTKGWHSSSPDPAV
Which binding (SGT1a-NLuc) does the source give for B2 here?
Its binding is “binds”.

B3: IAA8-NLuc (protein, UniProt Q38826 1-321)
chain: T1 sequence
B3 was tested. Which binding [2] did it give?
The binding was “binds”.

B4: IAA8^AAA-NLuc (protein, UniProt Q38826 1-321)
chain: T1 sequence with S74A, T77A, S135A
B4 was tested. Which binding [2] did it give?
Its binding is “binds”.

B5: IAA8^DDD-NLuc (protein, UniProt Q38826 1-321)
chain: T1 sequence with S74D, T77D, S135D
For B5, which binding [2] is on record?
Its binding is “binds”.

B6: AD-IAA8 (protein, UniProt Q38826 1-321)
chain: T1 sequence
Which results are given for B6?
binding [3]: binds; binding [4]: binds
